The list shows a part of the results.

Chains of the proteins cited; added tags and fusions are not shown.
UniProt Q0JBA9, entry or part of it: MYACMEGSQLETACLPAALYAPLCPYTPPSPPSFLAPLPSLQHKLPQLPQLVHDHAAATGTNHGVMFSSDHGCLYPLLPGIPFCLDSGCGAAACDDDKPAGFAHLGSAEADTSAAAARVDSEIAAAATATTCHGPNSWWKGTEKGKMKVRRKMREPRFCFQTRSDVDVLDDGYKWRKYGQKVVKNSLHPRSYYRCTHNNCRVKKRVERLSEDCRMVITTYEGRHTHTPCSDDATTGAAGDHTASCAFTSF

The target of the assay is OsWRKY34 (Oryza sativa, UniProt Q0JBA9 1-250). Briefly: protein-binding microarray (RPBM); PBS, 2% BSA, 51.3 ng/ul salmon testes DNA, 50 uM zinc acetate, 200 nM TF, 25 C, 1 h; high values mean tight binding. The settings on record: protein: recombinant; tags: N-terminal polyhistidine and DsRed monomer fusion (pET32a); label: CyDye5-dUTP incorporated in the synthesized complementary strand; 3' TTTTT single-stranded linker to array surface; dsDNA, one strand shown. The method, boiled down: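 Transcription factors were each fused at the N-terminus to a polyhistidine tag plus DsRed and expressed in E. coli BL21-CodonPlus before Ni–NTA purification. Binding to a double-stranded custom Agilent array was carried out with 200 nM protein at 25 °C for 1 h in PBS, 2% BSA, salmon testes DNA and 50 µM zinc acetate. The binding signal is per-feature fluorescence intensity, in arbitrary units, on an Axon 4000B scanner.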
In the case of “GCGCAGTGGTCGTCGCCCTCGTTGTTTACTTTGCTTAATTCGGAGTCACCTAGTGCAG”, the binding signal was 13300 fluorescence intensity (a.u.). Turning to “TAGATCTATATTTTTTTTCCTTTTTCTTTCAAATGTGTATCGGAGTCACCTAGTGCAG”, the binding signal is 8260 fluorescence intensity (a.u.). Turning to “CTCGTCCGGCCCACCGCTCCTCCTCGAGCAGCCTCTTCCTCGGAGTCACCTAGTGCAG”, the binding signal was 8510 fluorescence intensity (a.u.). For the sequence “AATCTAACGCGGTAACTTTTTCCAGCCTGGGTTTTTGCATCGGAGTCACCTAGTGCAG”, the binding signal is 9560 fluorescence intensity (a.u.). To “TGCCTCTCACGTACTGACACTGTTGCGCACACGCACGCACCGGAGTCACCTAGTGCAG” belongs 9670 fluorescence intensity (a.u.). “GTTGTTTGGTTGCGTGAGGAGAGGAGGAGGAGGAGGAGGACGGAGTCACCTAGTGCAG”: the binding signal is 8200 fluorescence intensity (a.u.). Under “GGGCTGTTATCTCTGATGTGTTTTCTGCCTCTCATGTCATCGGAGTCACCTAGTGCAG” stands 17000 fluorescence intensity (a.u.); under “AATAGCTGAATAGCACATCGCCATCACAATGCCAGCGCCTCGGAGTCACCTAGTGCAG”, 8610 fluorescence intensity (a.u.); under “CAGATTAATTGTTATTCATATATATACATTGACACTCGTTCGGAGTCACCTAGTGCAG”, 8330 fluorescence intensity (a.u.). To “TGTTCTGGGTGTAGTGGTTGTGCTGGTTTCTTTAATGGAACGGAGTCACCTAGTGCAG” belongs 8940 fluorescence intensity (a.u.); to “CAGCACAAGTGTCGTCGTCTCTCCGTTTCTTGTGCAGTTTCGGAGTCACCTAGTGCAG”, 12100 fluorescence intensity (a.u.).

In the case of “GCATACATACATACATACATACCCACCAGCTGATCGATGGCGGAGTCACCTAGTGCAG”, the binding signal was 8080 fluorescence intensity (a.u.).

“TCACCAGTCATTACACTCTGCCATTTCCTTATCCAGTTATCGGAGTCACCTAGTGCAG”: the binding signal is 12600 fluorescence intensity (a.u.). Regarding “ACGTGAAGTTTGACTCCTTTTGATATATTATCGTTTTAAACGGAGTCACCTAGTGCAG”, the binding signal was 8360 fluorescence intensity (a.u.). For the sequence “CCTTTTCAGTTACTCATCAATTACCTTTTAGTTTTTGTCACGGAGTCACCTAGTGCAG”, the binding signal was 8650 fluorescence intensity (a.u.). Under “TCATTCATCATCAGCAGCAGTCAGTCCATCCAACGCGTCTCGGAGTCACCTAGTGCAG” stands 11000 fluorescence intensity (a.u.); under “TTTAATATATAACACCGTTGACTTTTTATCAAACGTTTGACGGAGTCACCTAGTGCAG”, 23400 fluorescence intensity (a.u.).

For the sequence “AGAGTTTTTTTTACGGATAGCGTACTCATCTAATCTACCACGGAGTCACCTAGTGCAG”, the binding signal is 9030 fluorescence intensity (a.u.). Under “GTGGTGGTGTGTAGGCTGCAGCTGCATTTCATCCCGGGAGCGGAGTCACCTAGTGCAG” stands 9700 fluorescence intensity (a.u.). As to “GAAAGTGGGAGAGAGAATAGGTTGGGGTGGTTGGTTTGGGCGGAGTCACCTAGTGCAG”, the binding signal was 14700 fluorescence intensity (a.u.). To “GCATGAGGTTTGCCGTTTTGTCCCTTTCTGTTACTTTTTTCGGAGTCACCTAGTGCAG” belongs 11100 fluorescence intensity (a.u.); to “CATTTTTACATCACCCCAAACCCCATCATTTCTTGCTTCCCGGAGTCACCTAGTGCAG”, 10900 fluorescence intensity (a.u.); to “GTCTTCCGCGGCGGCGGCGGGGAAGCGGGCGCGGGCGGGGCGGAGTCACCTAGTGCAG”, 13800 fluorescence intensity (a.u.). Regarding “ACCTTAATCGATCTTAATTAATCGCTAACCTTTATGTCATCGGAGTCACCTAGTGCAG”, the binding signal is 8980 fluorescence intensity (a.u.).

In the case of “CAGTAACAAGTGCATGCCTCATCTGTCTTGTACTTATCTTCGGAGTCACCTAGTGCAG”, the binding signal was 8460 fluorescence intensity (a.u.).

Take “GTCCATTGATTTCTCGCCGCGCTTAATTTGTCCTCCGATCCGGAGTCACCTAGTGCAG”: the binding signal is 10500 fluorescence intensity (a.u.). For the sequence “TCTCCTTTTAATCTAGCCACCATTTTAATCCCTGTGGCTTCGGAGTCACCTAGTGCAG”, the binding signal is 9170 fluorescence intensity (a.u.).

On to “CGGACGCTTCTTCTCTTCGCCGCCTATTTCTTCAGCTCCTCGGAGTCACCTAGTGCAG”, for which the binding signal is 8150 fluorescence intensity (a.u.).

In the case of “CAATATATGCTTTGAGGTGGCTCTCTCTCTCTCTCTCTCTCGGAGTCACCTAGTGCAG”, the binding signal is 8130 fluorescence intensity (a.u.). To “TGCACAATTGTATTTCTTTTAAGCTAAAAGGGGATTTATACGGAGTCACCTAGTGCAG” belongs 8260 fluorescence intensity (a.u.).

As for “TCAAGCCTTTTCGACGAGCTTACGGCAATTGCTTCGTTCACGGAGTCACCTAGTGCAG”, the binding signal is 8500 fluorescence intensity (a.u.).

“TTAGGGGTTTTCGTTATACTGTAAGTATGTCTTTTTATTTCGGAGTCACCTAGTGCAG”: the binding signal is 11500 fluorescence intensity (a.u.).

For the sequence “CTGTGGTAGGGGAGAATGAGGGCACACATGCGGGTTTAAGCGGAGTCACCTAGTGCAG”, the binding signal is 8260 fluorescence intensity (a.u.). To “CTATTGGCTCATACCTTTTTTCAGTGGCTGGGTGTAGGTTCGGAGTCACCTAGTGCAG” belongs 8840 fluorescence intensity (a.u.). On to “CTCCCTCCGTTTCGAAATGTTTGACGCCGTTGACTTTTTACGGAGTCACCTAGTGCAG”, for which the binding signal was 15900 fluorescence intensity (a.u.). To “GTGTTTAGCGCTTTGACCATCCATCTTATCTGAAAAATTTCGGAGTCACCTAGTGCAG” belongs 11600 fluorescence intensity (a.u.); to “TTGATTTCTTGTATGCTAGCCATTTTCATATTTTGTATTACGGAGTCACCTAGTGCAG”, 9710 fluorescence intensity (a.u.); to “GCCGCCTCCGCCGCCGCCCGATAGGCCTCCGGCGCCGCCCCGGAGTCACCTAGTGCAG”, 9360 fluorescence intensity (a.u.).

Take “TTGGGTTGAGATGGGTAGGAGTGGTGGTGGCGGTGGTGGTCGGAGTCACCTAGTGCAG”: the binding signal was 8160 fluorescence intensity (a.u.).

“AAAAGGCATTTTCCCCGATGTGGGTTTTATTTTTCCAGTCCGGAGTCACCTAGTGCAG”: the binding signal is 8910 fluorescence intensity (a.u.). “GAGCTGGTGGAGGGGTCTTAGCTCGTGAGAGGGATTTGATCGGAGTCACCTAGTGCAG”: the binding signal was 8330 fluorescence intensity (a.u.).

As to “GACGAATACCGGTCAACACCGCCATATCAGCGCCACGTCACGGAGTCACCTAGTGCAG”, the binding signal was 8220 fluorescence intensity (a.u.).

The record behind these values is PMC7819943, “Rice protein-binding microarrays: a tool to detect cis-acting elements near promoter regions in rice”.
